The text below walks through data of article PMC7797037.

Chains of the proteins cited; added tags and fusions are not shown.
UniProt A4D1E9: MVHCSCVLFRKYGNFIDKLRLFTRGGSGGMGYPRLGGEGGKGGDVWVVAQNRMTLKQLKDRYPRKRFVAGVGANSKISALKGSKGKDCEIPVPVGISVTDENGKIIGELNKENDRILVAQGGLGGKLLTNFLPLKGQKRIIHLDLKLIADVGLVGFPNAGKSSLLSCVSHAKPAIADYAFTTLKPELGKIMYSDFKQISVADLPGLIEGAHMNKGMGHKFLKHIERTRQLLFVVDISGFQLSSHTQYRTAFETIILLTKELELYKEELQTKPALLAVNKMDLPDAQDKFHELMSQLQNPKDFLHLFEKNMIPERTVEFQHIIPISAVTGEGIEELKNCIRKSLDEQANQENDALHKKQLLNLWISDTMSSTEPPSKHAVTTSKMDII

The target of this assay is T1, GTPBP5::FLAG (C-terminal FLAG-tagged GTPBP5) (human) (UniProt Q9H4K7).
T1 sequence: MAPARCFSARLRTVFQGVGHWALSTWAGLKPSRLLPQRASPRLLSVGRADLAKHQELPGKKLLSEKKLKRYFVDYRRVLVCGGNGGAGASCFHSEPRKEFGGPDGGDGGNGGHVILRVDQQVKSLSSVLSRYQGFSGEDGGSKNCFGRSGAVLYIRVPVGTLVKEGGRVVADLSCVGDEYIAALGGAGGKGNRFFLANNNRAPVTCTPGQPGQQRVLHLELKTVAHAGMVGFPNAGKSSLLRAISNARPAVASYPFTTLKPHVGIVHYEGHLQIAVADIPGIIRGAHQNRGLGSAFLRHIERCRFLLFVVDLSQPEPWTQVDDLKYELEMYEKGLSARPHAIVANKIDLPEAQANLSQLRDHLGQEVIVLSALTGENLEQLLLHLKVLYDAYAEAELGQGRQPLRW
As to the kind of experiment: affinity purification with mass spectrometry; FLAG-IP from lysate of mitochondria isolated from HEK293T expressing GTPBP5::FLAG (48 h), buffers with 5 mM MgCl2, elution with 3X FLAG peptide; label-free quantitative mass spectrometry against control HEK293T without FLAG protein, n = 3.

Results are given in words; binding and its absence hold for the method and conditions named. In cells and extracts the contact can be indirect. Here binding means that the protein was enriched with, or labelled near, the bait; the list need not be complete. A no says only that the protein was not detected with the bait. Sequences can lack the tags named with a protein.

“GTPBP10 (endogenous) (from UniProt A4D1E9 1-387)”: the binding entry was “no binding”. The value for “MTG1 (GTPBP7) (human (endogenous in HEK293T))” was “binds”. For the substance bL36m (human (endogenous in HEK293T)), the binding result was “no binding”.
